{"source": "patent US20190284168A1", "about": "“PYRAZOLE DERIVATIES AS SGC STIMULATORS” (IRONWOOD PHARMACEUTICALS, INC., priority 2014, published 2019)", "origin": "cited, not measured here", "key": {"patients with BMD": {"test_system": "patients with BMD", "details": "single oral dose of 20 mg; cited from earlier work"}, "mdx mouse": {"test_system": "mdx mouse", "details": "cited from earlier work"}}, "note": "At least one structure is not confirmed: it was looked up by name or label, or the drawing left a doubt.", "data": [{"smiles": "CN1CC(=O)N2[C@H](c3ccc4c(c3)OCO4)c3[nH]c4ccccc4c3C[C@@H]2C1=O", "note": "[tadalafil, Tadalafil]", "values": [{"measurement": "normal blood flow regulation", "setting": "patients with BMD", "result": "restored in eight of nine patients"}, {"measurement": "muscle ischemia, injury and fatigue after a brief bout of exercise", "setting": "mdx mouse", "result": "alleviate muscle ischemia, as well as injury and fatigue"}]}]}
